Measurements reported in PubChem BioAssay AID1159578 (Peter MacCallum Cancer Centre, 2015).
Shown is an unselected part of about 18,000 reagents. Over the whole deposit, about 1,030 (5.7%) got an active call. 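Inactive calls also include pools with fewer than 3300 nuclei, whose migration was not assessed.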 Raw values are not corrected between plates. Entries without a mark were called inactive. Not all columns of the deposit are shown.

Aim: 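Knock-downs that alter how fast lymphatic endothelial cells migrate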 (primary screen)
Cells: human lymphatic endothelial cells
Knock-down reagent: siRNA pool against human genes, 40 nM
Timing: 48 h after transfection
Detection: 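Cells stained with dye and imaged after a scratch; covered wound area and nuclei counted, duplicates averaged, migration set against mock wells and turned into a robust z-score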
Scale: migration robust z-score: higher = faster migration into the scratch; nuclei per well: higher = more cells in the well
Call rule: 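Pools averaging fewer than 3300 nuclei are never called; remaining pools count as changed when migration robust z lies outside -2 to 2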
Meaning of the calls: active = migration changed; inactive = no migration change, or too few cells

Depletion of HTR1B (5-hydroxytryptamine receptor 1B) [SID255350354] resulted in: migration robust z-score -0.88; migration class with cell-count check migration z between -2 and 2; enough cells; nuclei per well, duplicate mean 6654.
For ZNF281 (zinc finger protein 281) [SID255356303], the entry reads migration robust z-score 1.27; migration class with cell-count check migration z between -2 and 2; enough cells; nuclei per well, duplicate mean 4348.
Silencing of BST1 (bone marrow stromal cell antigen 1) [SID255348584] gave: migration robust z-score -0.16; migration class with cell-count check migration z between -2 and 2; enough cells; nuclei per well, duplicate mean 4632.
TMX1 (thioredoxin related transmembrane protein 1) [SID255360882] scored migration robust z-score 1.03; migration class with cell-count check migration z between -2 and 2; enough cells; nuclei per well, duplicate mean 5937.
With knock-down of MAGI1 [SID255354127] the results were migration robust z-score -2.99; migration class with cell-count check under 3300 nuclei; migration not judged; nuclei per well, duplicate mean 3046.
With knock-down of DLGAP1 (DLG associated protein 1) [SID255354130], the screen gave migration robust z-score -0.44; migration class with cell-count check migration z between -2 and 2; enough cells; nuclei per well, duplicate mean 5279.
With knock-down of GIMAP4 (GTPase, IMAP family member 4) [SID255358584], the record shows migration robust z-score -0.03; migration class with cell-count check migration z between -2 and 2; enough cells; nuclei per well, duplicate mean 5511.
TRPV5 [SID255359076] scored migration robust z-score -0.86; migration class with cell-count check migration z between -2 and 2; enough cells; nuclei per well, duplicate mean 4040.
Against OR4K15 (olfactory receptor family 4 subfamily K member 15) [SID255360854], the entry reads migration robust z-score 0; migration class with cell-count check migration z between -2 and 2; enough cells; nuclei per well, duplicate mean 5756.
After knock-down of MRRF (mitochondrial ribosome recycling factor) [SID255362010], the screen gave migration robust z-score 0.12; migration class with cell-count check migration z between -2 and 2; enough cells; nuclei per well, duplicate mean 5490.
SUMO2 (small ubiquitin like modifier 2) [SID255352533] showed migration robust z-score 2.55 (active); migration class with cell-count check migration z above 2; enough cells; nuclei per well, duplicate mean 6182.
For ATAD3A (ATPase family AAA domain containing 3A) [SID255358503], the values are migration robust z-score 1.09; migration class with cell-count check migration z between -2 and 2; enough cells; nuclei per well, duplicate mean 6848.
Against GUCY1A1 (guanylate cyclase 1 soluble subunit alpha 1) [SID255350104] the deposit lists migration robust z-score -1.32; migration class with cell-count check migration z between -2 and 2; enough cells; nuclei per well, duplicate mean 5104.
With knock-down of INS (insulin) [SID255350505] the results were migration robust z-score -0.1; migration class with cell-count check migration z between -2 and 2; enough cells; nuclei per well, duplicate mean 5552.
After knock-down of IDH1 (isocitrate dehydrogenase (NADP(+)) 1) [SID255350384], the record shows migration robust z-score 1.09; migration class with cell-count check migration z between -2 and 2; enough cells; nuclei per well, duplicate mean 5380.
Knock-down of TRIM24 (tripartite motif containing 24) [SID255353827] gave: migration robust z-score -0.83; migration class with cell-count check migration z between -2 and 2; enough cells; nuclei per well, duplicate mean 3398.
TROAP (trophinin associated protein) [SID255354752] showed migration robust z-score 0.36; migration class with cell-count check migration z between -2 and 2; enough cells; nuclei per well, duplicate mean 5538.
Depletion of HSFX1 (heat shock transcription factor family, X-linked 1) [SID255357703] resulted in: migration robust z-score -1.83; migration class with cell-count check migration z between -2 and 2; enough cells; nuclei per well, duplicate mean 3802.
With knock-down of ILDR1 (immunoglobulin like domain containing receptor 1) [SID255364926] the results were migration robust z-score 2.4 (active); migration class with cell-count check migration z above 2; enough cells; nuclei per well, duplicate mean 7710.
For CDC25A (cell division cycle 25A) [SID255348815], the entry reads migration robust z-score 1.06; migration class with cell-count check migration z between -2 and 2; enough cells; nuclei per well, duplicate mean 5012.
WDR64 (WD repeat domain 64) [SID255362778] showed migration robust z-score 0.05; migration class with cell-count check migration z between -2 and 2; enough cells; nuclei per well, duplicate mean 6306.

2 entries from above, set out differently.
gene	PubChem SID	migration robust z-score	migration class with cell-count check	nuclei per well, duplicate mean
INS (insulin)	SID255350505	-0.1	migration z between -2 and 2; enough cells	5552
IDH1 (isocitrate dehydrogenase (NADP(+)) 1)	SID255350384	1.09	migration z between -2 and 2; enough cells	5380
